Inconclusive results, whose numbers are uncertain, are shown with a selection of clear calls. Activity calls are given as the source filed them.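 How the source made its calls: active means compounds whose electron micrographs showed tau fibrils broken into shorter filaments or fragments, graded high on fibril breakup; inconclusive means micrographs gave an unclear fibril picture; inactive means the rest.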
Each compound was assayed against Microtubule-associated protein tau (Homo sapiens) (UniProt P10636) (assay: Transmission Electron Microscopy Assay for Inhibitors of Tau Fibrillization). Settings: recombinant tau K18 P301L (four-repeat tau fragment) fibrillization, TEM grading; hits give high values.
From the text: NIH Molecular Libraries Probe Production Network [MLPCN] NIH Chemical Genomics Center [NCGC] MLPCN Grant: X01 MH083262-01 Assay Provider: Carlo Ballatore, University of Pennsylvania NCGC Assay Overview: The microtubule-associated protein tau is an abundant protein in the axons of neurons that stabilizes microtubules. With its ability to modulate microtubule dynamics, tau contributes directly or indirectly, to key structural and regulatory cellular functions. Particularly important is the influence tau exerts on axonal transport, which allows signaling molecules, trophic factors and other essential cellular constituents to travel along the axons. Under pathological conditions, tau becomes sequestered into insoluble aggregates called neurofibrillary tangles. This phenomenon is believed to have pathological consequences by promoting axonal transport deficits that ultimately lead to synaptic dysfunction and neuronal loss. The ability of compounds to block tau fibrillization was visualized using transmission electron microscopy (TEM). Samples from the tau ThT confirmation assay treated with 100 uM compound (AID 1558) were centrifuged and imaged using TEM. Electron micrographs of representative fields of objects were imaged to judge fibril content using grading scale from 0-4: 0, all fibrils in clumps, no fragments; 1, small fibril clumps, free filaments and some pieces; 2, filaments and pieces but no clumps; 3, short filaments and tiny pieces; 4, only tiny pieces. Crowe, A., Ballatore, C., Hyde, E., Trojanowski, J. Q., and Lee, V. M. Y. (2007) Biochemical and Biophysical Research Communications 358, 1-6.
NCGC Assay Protocol Summary: Human K18 P301L tau (15 uM) in assay buffer (20 uM heparin, 12.5 uM Thioflavine T, 100 mM sodium acetate pH 7) was centrifuged at 186,000 g for 30 min and the supernatant removed from the pellet. Pellets were resuspended, stained with uranyl acetate, and imaged by electron microscopy.

Amino acid sequences for entries named in this document (tags omitted). Residues count along the entry.
UniProt P10636, 561-689 P618L limits assumed: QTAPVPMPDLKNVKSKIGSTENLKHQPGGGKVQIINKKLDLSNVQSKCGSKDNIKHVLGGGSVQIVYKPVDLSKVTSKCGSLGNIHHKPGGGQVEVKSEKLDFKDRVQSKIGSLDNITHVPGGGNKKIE

Fibril grade (0 = clumped fibrils, 4 = only tiny pieces), inactive:
CC(/C=C1\SC(=S)N(NC(=O)c2cccc(O)c2)C1=O)=C\c1ccccc1 0
COc1ccc2oc(-c3ccc(NC(=O)c4ccc(N5CCOCC5)c([N+](=O)[O-])c4)cc3)nc2c1 0
COC(=O)c1c(NC(=O)CCCOc2ccc(C(C)(C)C)cc2)sc2c1C(C(=O)OC)CC2 (stereo not drawn) 0

Fibril grade (0 = clumped fibrils, 4 = only tiny pieces), active:
COC(=O)c1ccccc1NC(=O)CSc1nc2sc3c(c2c(=O)[nH]1)CCCC3 2
COC(=O)c1c(NC(=O)CCCOc2cccc(C)c2)sc2c1C(C(=O)OC)CC2 (stereo not drawn) 2

Fibril grade (0 = clumped fibrils, 4 = only tiny pieces), inconclusive:
COc1ccc2[nH]c(=O)c(CNc3ccccc3OC)cc2c1 1
Oc1ccccc1CNc1cccc2cccnc12 1
Nc1cc(-c2ccccc2)c[nH]c1=O 1
COC(=O)c1nn(-c2ccc(OC)cc2)c(=O)c2c(N)sc(C)c12 1
Cc1ccc(N2C(=O)SC(Cc3ccccc3)C2=O)cc1 (stereo not drawn) 1
Cc1cc2c(NC(=O)Nc3ccccc3)cccc2nn1 1
Cc1ccc(-c2ccc(/C=N/N=C3/NC(=O)C(CC(=O)O)S3)o2)c([N+](=O)[O-])c1 (stereo not drawn) 1
Cc1ccc(C(=O)Nc2nc(=O)n(C(=O)C3CC3)s2)cc1 1

3 compounds from above, sorted by formula weight, descending.
Fibril grade (0 = clumped fibrils, 4 = only tiny pieces), inconclusive:
COC(=O)c1nn(-c2ccc(OC)cc2)c(=O)c2c(N)sc(C)c12 1
Cc1ccc(C(=O)Nc2nc(=O)n(C(=O)C3CC3)s2)cc1 1
Cc1ccc(N2C(=O)SC(Cc3ccccc3)C2=O)cc1 (stereo not drawn) 1

From PubChem BioAssay AID1719 (National Center for Advancing Translational Sciences (NCATS), 2009)
